Source: publication PMC3629153

Target: T1, tetraspanin CD81 (human (endogenous in MDA-MB-231)) (UniProt P60033)
T1 sequence: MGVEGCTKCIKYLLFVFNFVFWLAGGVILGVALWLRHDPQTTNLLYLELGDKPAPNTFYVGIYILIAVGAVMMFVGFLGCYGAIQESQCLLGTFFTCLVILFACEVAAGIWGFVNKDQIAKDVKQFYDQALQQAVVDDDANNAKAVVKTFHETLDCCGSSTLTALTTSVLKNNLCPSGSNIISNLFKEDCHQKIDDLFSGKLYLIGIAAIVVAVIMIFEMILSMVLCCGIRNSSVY
Assay: co-IP; MDA-MB-231 wild type cells (also CD9/CD81si and CD151RX cells) lysed in 1% Brij 96V/Brij 99 (1:1), 20 mM HEPES pH 7.2, 150 mM NaCl, 1 mM MgCl2; CD9, CD81 or CD151 immunoprecipitated (5 µg/ml antibody, protein G sepharose); blot for the α3 integrin subunit

binding: binds weakly
Substance: α3β1 integrin (human (endogenous in MDA-MB-231)) (complex)

Results are given in words; binding and its absence hold for the method and conditions named. Binding seen in cells or lysates may run through a third protein. Binding calls can cover weak binding; strength is not graded here.
